Data as given in patent publication US20060058223A1.
Results are given in words; binding and its absence hold for the method and conditions named. In cells and extracts the contact can be indirect. Some binding calls cover weakened binding; strength is not graded here. Sequences can lack the tags named with a protein.

Protein sequences, listed by entry. Tags and fused reporters are not part of them. Residues count along the entry.
UniProt Q96FE5, residues 42-620: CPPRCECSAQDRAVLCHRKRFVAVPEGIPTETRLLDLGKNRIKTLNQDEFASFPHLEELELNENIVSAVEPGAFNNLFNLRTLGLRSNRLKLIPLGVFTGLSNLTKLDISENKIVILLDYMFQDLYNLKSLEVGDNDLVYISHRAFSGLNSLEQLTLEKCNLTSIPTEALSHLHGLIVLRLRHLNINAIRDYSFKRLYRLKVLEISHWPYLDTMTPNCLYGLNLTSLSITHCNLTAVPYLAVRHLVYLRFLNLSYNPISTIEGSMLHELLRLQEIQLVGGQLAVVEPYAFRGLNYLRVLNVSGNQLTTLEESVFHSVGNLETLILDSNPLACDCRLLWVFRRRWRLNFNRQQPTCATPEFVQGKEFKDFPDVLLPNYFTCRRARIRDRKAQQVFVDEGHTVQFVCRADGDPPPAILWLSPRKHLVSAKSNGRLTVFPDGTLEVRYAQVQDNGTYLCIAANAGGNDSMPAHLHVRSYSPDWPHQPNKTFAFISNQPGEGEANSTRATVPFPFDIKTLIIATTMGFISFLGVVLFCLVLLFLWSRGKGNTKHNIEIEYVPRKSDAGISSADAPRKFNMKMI

Columns and labels:
[1] = biological target: human LINGO-1 expressed in COS-7 cells (human) (UniProt Q96FE5); test: co-immunoprecipitation from co-transfected COS-7 cells, Western blot
[2] = biological target: T1, human NgR1 expressed in COS-7 cells (human) (UniProt Q9BZR6); test: as above
T1 sequence (looked up): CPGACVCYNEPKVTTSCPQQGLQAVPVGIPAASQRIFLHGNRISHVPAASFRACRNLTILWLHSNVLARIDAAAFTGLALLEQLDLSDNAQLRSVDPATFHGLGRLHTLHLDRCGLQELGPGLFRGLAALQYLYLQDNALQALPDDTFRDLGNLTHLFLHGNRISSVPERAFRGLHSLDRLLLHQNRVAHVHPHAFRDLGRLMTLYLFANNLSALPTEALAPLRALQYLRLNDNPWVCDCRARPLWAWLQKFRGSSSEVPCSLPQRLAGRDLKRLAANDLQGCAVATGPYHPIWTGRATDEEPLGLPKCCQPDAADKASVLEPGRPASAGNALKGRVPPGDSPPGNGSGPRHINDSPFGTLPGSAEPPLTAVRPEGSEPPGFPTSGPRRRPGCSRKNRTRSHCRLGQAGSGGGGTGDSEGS

binding [1]: binds
binding [2]: binds
B1: Human TAJ (residue 26 to 416, in PV90 HA tag expression vector) expressed in COS-7 cells (receptor, not shown: small tags and cut ends)
chain: KVTCESGDCRQQEFRDRSGNCVPCNQCGPGMELSKECGFGYGEDAQCVACRLHRFKEDWGFQKCKPCLDCAVVNRFQKANCSATSDAICGDCLPGFYRKTKLVGFQDMECVPCGDPPPPYEPHCASKVNLVKIASTASSPRDTALAAVICSALATVLLALLILCVIYCKRQFMEKKPSWSLRSQDIQYNETELSCFDRPQLHEYAHRACCQCRRDSVQTCGPVRLLPSMCCEEACSPNPATLGCGVHSAASLQARNAGPAGEMVPTFFGSLTQSICGEFSDAWPLMQNPMGGDNISFCDSYPELTGEDIHSLNPELESSTSLDSNSSQDLVGGAVPVQSHSENFTAATDLSRYNNTLVESASTQDALTMRSQLDQESGAVIHPATQTSLQV
